Results from the supplement of paper PMC10849652.
The list shows a part of the results.

The chains behind the UniProt entries cited, without tags or fusion partners. Where a name states a change or a piece, a line headed by the entry shows the natural chain unless it says otherwise.
UniProt Q08378: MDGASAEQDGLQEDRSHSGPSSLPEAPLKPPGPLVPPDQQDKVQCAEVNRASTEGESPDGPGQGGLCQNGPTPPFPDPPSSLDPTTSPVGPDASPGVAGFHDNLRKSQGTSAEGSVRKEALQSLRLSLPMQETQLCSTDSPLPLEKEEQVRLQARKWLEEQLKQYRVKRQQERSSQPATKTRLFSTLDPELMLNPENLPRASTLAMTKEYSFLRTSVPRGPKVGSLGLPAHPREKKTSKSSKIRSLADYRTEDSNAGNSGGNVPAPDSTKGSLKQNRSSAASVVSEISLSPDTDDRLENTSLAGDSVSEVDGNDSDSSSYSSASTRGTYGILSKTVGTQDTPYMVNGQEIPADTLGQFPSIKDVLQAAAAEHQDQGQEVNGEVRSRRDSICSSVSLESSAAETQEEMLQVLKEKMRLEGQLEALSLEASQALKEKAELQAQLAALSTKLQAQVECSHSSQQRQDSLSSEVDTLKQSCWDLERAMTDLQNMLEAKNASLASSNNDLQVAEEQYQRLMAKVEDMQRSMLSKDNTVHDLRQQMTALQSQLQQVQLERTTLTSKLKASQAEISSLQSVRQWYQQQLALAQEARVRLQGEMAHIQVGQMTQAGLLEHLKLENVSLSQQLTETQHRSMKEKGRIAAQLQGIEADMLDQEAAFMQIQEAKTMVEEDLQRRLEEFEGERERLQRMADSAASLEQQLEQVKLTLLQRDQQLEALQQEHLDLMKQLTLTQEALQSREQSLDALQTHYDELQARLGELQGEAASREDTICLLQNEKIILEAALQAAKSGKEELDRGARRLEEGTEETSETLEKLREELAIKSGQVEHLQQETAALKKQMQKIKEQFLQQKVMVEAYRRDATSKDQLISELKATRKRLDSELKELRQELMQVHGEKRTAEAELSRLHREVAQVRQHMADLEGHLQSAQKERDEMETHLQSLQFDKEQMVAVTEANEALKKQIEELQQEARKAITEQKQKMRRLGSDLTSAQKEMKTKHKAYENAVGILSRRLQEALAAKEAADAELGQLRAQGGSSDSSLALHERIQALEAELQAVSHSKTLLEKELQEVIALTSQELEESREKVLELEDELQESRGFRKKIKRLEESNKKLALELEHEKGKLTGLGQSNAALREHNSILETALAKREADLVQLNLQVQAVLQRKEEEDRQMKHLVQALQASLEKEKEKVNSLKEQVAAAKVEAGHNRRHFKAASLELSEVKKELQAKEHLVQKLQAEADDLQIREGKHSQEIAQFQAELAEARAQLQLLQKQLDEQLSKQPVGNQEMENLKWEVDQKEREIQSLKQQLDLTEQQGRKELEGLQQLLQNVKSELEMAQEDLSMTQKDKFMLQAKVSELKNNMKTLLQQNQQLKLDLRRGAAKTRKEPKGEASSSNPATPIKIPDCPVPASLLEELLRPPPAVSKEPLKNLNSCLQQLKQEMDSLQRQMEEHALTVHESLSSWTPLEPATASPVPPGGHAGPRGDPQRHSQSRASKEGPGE
UniProt Q14789: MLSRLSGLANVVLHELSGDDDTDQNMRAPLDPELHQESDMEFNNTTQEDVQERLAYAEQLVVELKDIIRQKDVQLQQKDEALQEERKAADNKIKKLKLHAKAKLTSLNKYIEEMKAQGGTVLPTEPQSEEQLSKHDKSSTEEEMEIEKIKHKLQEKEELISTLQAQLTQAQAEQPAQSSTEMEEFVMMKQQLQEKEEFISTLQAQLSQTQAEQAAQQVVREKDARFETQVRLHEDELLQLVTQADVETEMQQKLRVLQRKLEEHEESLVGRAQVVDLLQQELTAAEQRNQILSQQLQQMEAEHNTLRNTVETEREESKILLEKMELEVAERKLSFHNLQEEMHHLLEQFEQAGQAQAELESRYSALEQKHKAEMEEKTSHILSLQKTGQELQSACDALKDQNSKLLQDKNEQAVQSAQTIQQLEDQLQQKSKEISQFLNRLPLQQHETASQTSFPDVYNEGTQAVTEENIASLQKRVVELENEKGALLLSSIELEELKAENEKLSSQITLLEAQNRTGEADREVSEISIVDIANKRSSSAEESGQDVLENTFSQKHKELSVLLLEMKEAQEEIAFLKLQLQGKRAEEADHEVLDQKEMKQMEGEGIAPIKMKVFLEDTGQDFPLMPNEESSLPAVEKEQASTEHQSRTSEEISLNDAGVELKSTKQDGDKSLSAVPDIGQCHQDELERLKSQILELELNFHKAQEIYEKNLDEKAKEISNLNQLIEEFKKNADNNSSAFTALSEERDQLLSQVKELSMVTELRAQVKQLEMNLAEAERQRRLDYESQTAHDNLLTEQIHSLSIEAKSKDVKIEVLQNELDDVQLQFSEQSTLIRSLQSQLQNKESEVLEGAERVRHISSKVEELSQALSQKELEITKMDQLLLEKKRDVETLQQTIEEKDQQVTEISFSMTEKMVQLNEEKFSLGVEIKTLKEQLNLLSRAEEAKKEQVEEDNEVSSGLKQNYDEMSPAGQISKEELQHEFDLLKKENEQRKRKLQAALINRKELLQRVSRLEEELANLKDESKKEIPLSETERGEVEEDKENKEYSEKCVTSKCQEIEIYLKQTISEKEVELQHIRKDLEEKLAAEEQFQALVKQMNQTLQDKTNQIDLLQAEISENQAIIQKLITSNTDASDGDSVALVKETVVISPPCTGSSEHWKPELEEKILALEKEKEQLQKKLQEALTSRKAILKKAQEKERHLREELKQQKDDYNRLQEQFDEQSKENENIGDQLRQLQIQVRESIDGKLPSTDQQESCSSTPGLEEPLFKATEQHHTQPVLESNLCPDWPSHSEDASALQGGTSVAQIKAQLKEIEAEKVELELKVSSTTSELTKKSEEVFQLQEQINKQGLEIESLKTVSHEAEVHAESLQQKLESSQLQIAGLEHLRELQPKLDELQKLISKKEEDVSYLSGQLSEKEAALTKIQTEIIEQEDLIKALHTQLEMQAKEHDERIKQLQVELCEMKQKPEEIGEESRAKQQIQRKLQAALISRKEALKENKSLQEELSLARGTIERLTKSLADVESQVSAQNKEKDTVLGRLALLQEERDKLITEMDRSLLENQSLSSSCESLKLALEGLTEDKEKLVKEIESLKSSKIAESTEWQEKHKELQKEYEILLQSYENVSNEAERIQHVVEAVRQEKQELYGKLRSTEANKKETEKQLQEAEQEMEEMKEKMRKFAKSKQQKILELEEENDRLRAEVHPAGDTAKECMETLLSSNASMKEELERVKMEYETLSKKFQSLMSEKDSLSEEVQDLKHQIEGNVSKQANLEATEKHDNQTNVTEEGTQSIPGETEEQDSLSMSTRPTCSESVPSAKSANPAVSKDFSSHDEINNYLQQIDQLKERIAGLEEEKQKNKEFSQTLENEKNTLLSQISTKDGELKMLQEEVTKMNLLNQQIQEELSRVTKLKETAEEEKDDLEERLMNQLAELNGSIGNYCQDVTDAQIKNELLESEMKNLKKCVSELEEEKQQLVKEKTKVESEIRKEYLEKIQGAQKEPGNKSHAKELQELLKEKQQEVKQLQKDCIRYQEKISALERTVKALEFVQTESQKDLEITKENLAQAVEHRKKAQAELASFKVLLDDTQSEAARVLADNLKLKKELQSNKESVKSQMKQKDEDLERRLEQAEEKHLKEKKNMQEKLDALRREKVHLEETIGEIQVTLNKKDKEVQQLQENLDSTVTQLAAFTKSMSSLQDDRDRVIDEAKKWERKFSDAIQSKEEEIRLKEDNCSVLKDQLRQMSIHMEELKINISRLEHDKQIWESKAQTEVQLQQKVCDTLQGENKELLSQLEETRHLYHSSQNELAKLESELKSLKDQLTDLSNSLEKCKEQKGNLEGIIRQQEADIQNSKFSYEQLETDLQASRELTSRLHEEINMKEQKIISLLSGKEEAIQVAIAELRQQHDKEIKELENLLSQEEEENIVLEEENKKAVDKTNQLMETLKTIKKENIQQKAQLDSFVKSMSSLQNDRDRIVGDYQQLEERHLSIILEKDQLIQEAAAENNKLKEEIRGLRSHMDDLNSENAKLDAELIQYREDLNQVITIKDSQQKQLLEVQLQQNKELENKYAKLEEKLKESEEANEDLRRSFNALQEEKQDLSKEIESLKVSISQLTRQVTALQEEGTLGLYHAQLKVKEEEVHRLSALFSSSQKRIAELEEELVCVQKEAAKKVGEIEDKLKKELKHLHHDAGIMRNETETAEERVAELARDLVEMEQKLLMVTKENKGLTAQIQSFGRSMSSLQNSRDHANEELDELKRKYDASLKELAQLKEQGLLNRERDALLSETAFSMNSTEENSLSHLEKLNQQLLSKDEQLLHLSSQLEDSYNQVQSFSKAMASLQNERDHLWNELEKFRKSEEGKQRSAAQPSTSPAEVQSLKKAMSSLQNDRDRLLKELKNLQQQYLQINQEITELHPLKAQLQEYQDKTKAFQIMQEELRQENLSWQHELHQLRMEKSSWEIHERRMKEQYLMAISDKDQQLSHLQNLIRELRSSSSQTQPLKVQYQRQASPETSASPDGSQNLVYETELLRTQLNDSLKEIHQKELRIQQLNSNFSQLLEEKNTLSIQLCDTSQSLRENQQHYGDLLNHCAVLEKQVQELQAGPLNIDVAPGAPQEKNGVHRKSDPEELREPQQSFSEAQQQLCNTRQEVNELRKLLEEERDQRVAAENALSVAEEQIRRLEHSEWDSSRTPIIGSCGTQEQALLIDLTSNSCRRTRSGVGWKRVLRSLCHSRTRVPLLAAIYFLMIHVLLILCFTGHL
UniProt A6NDN3: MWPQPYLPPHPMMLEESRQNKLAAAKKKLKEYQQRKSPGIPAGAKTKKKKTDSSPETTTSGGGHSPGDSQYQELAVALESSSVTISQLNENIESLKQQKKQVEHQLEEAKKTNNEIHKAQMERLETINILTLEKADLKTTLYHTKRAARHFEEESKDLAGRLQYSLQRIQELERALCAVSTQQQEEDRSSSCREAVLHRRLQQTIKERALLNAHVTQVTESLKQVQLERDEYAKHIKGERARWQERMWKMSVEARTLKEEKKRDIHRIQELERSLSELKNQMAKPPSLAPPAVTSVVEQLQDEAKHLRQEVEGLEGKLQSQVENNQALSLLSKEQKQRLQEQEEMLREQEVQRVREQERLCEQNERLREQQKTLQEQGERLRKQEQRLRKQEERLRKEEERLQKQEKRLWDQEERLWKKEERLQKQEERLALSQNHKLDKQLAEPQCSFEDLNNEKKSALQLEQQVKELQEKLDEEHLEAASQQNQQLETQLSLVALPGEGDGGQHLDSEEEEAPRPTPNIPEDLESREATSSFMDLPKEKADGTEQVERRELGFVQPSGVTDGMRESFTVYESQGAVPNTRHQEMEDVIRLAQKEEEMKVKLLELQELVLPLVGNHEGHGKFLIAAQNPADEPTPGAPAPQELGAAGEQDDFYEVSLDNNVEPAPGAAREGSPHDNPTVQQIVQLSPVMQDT
UniProt Q14749: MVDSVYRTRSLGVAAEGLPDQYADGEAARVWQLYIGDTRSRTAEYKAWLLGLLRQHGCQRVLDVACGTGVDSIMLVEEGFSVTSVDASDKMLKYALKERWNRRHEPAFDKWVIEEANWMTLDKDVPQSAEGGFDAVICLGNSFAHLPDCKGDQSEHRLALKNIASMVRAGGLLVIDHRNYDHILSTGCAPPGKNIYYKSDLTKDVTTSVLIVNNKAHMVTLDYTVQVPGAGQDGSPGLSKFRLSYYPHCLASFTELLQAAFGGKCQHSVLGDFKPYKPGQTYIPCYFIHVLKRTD
UniProt Q7Z5G4, whole entry, looked up: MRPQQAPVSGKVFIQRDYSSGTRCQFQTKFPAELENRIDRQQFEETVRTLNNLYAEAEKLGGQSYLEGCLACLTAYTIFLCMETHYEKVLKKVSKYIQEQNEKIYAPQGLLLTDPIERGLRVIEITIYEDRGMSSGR
UniProt Q5T3I0: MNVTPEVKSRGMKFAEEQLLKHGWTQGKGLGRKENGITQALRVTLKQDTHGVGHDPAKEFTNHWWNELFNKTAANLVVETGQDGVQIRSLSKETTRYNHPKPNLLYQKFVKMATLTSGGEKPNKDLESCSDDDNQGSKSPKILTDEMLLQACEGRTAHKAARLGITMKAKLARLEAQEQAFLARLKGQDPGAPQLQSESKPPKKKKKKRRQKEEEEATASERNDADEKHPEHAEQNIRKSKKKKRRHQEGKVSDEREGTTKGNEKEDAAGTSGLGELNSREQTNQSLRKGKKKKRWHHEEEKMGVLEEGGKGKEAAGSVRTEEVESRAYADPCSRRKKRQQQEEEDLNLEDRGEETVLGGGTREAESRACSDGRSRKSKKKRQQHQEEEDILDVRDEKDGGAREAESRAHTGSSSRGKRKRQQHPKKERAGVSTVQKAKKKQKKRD
UniProt Q9Y248: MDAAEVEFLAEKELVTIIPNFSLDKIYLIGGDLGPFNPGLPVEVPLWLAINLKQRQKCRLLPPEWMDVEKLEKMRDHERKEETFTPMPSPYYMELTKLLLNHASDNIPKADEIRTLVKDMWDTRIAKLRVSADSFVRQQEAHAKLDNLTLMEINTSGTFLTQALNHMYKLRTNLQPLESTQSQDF

Assays:
Test in all cases: log2 fold change, soluble protein after heating vs DMSO (PISA); higher = thermal stabilisation; K562 cells, 10 uM, 30 min; active = over 0.2 and 3.5 SD of the protein, either way, in both replicates (recomputed)
[1] = compound: Cc1ccc(NC(=O)c2ccc(CN3CC[C@H](N(C)C)C3)c(C(F)(F)F)c2)cc1Nc1nccc(-c2cncnc2)n1 [bafetinib]
Summary of the method: (§1)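 Aliquots of K562 cells (2×10^6 cells/mL) treated with 10 μM compound for 30 min were heated for 3 min over 48°C-58°C. After pooling and extraction in PBS with 0.5% NP-40 at 4°C, soluble protein from a 21,000xg, 90 min spin was quantified by TMTpro 16plex LC-MS/MS with channel sums equalised. Thermal stability is expressed against control samples, from duplicates, as a log2 fold change.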

[2] = compound: Cc1cccc(CC(=O)N2CCc3c2ccc(-c2cn(C)c4ncnc(N)c24)c3F)n1
Summary of the method: as §1

[3] = compound: Cc1cn(-c2cc(NC(=O)c3ccc(C)c(Nc4nccc(-c5cccnc5)n4)c3)cc(C(F)(F)F)c2)cn1 [nilotinib]
Summary of the method: as §1

[4] = compound: Cc1nc(Nc2n[nH]c3c2CN(C(=O)N[C@H](CN(C)C)c2ccccc2)C3(C)C)c2sccc2n1
Summary of the method: as §1

[5] = compound: Cc1nc(Nc2ncc(C(=O)Nc3c(C)cccc3Cl)s2)cc(N2CCN(CCO)CC2)n1 [dasatinib]
Summary of the method: as §1

[6] = compound: Cc1ncc(-c2ccnc(Nc3ccc(S(C)(=O)=O)cc3)n2)n1C(C)C
Summary of the method: as §1

[7] = compound: Cn1cc(-c2ccc3c(c2)CCN3C(=O)Cc2cccc(C(F)(F)F)c2)c2c(N)ncnc21
Summary of the method: as §1

[8] = compound: Cn1cc(-c2ccc3nnc(C(F)(F)c4ccc5ncccc5c4)n3n2)cn1
Summary of the method: as §1

[9] = compound: Cn1cncc1[C@@](N)(c1ccc(Cl)cc1)c1ccc2c(c1)c(-c1cccc(Cl)c1)cc(=O)n2C [tipifarnib]
Summary of the method: as §1

[10] = compound: FC(F)(F)c1ccc(/C=C/c2nc(COc3ccc(CCCCn4ccnn4)cc3)co2)cc1 [mubritinib]
Summary of the method: as §1

[11] = compound: NC(=O)Nc1cc(-c2cccc(F)c2)sc1C(=O)N[C@H]1CCCNC1
Summary of the method: as §1

[12] = compound: NC(=O)c1cnc(N[C@@H]2CCCC[C@@H]2N)nc1Nc1cccc(-n2nccn2)c1
Summary of the method: as §1

[13] = compound: NC1(c2ccc(-c3nc4ccn5c(=O)[nH]nc5c4cc3-c3ccccc3)cc2)CCC1
Summary of the method: as §1

[14] = compound: NCC(=O)Nc1ccc(-n2nc(C(F)(F)F)cc2-c2ccc3c(ccc4ccccc43)c2)cc1
Summary of the method: as §1

[15] = compound: Nc1ccccc1NC(=O)c1ccc(CNC(=O)OCc2cccnc2)cc1 [entinostat]
Summary of the method: as §1

[16] = compound: O=C(CCCCCCC(=O)Nc1ccccc1)NO [vorinostat]
Summary of the method: as §1

[17] = compound: O=C(CCCCCCNC(=O)c1cnc(N(c2ccccc2)c2ccccc2Cl)nc1)NO [citarinostat]
Summary of the method: as §1

[18] = compound: O=C(O)c1ccc2c(c1)nc(Nc1cccc(Cl)c1)c1ccncc12 [silmitasertib]
Summary of the method: as §1

[19] = compound: c1cc(OCCN2CCCCC2)cc(-c2n[nH]c3ccc(-c4nnc[nH]4)cc23)c1
Summary of the method: as §1

[20] = compound: O=C1NC(=O)C(c2cnc3ccccn23)=C1c1cn2c3c(cc(F)cc13)CN(C(=O)N1CCCCC1)CC2
Summary of the method: as §1

Measured: log2 fold change

GPN2 (UniProt Q9H9Y4)
inactive: [1] -0.033 | [2] -0.027 | [3] 0.079 | [4] -0.028 | [5] 0.136 | [6] -0.04 | [7] 0.038 | [8] -0.021 | [9] 0.02 | [10] 0.071 | [11] 0.008 | [12] 0.008 | [13] 0.026 | [14] 0.027 | [15] 0.031 | [16] 0.023 | [17] -0.048 | [18] 0.063 | [19] -0.024

GOLGA3 (UniProt Q08378)
inactive: [1] -0.049 | [2] 0.011 | [3] 0.004 | [4] -0.016 | [5] 0.016 | [6] 0.056 | [7] 0.039 | [8] 0.001 | [9] -0.011 | [10] 0.047 | [11] 0.005 | [12] 0.024 | [13] -0.025 | [14] -0.005 | [15] -0.002 | [16] -0.026 | [17] -0.033 | [18] 0.046 | [20] 0.017 | [19] 0.025

GPATCH11 (UniProt Q8N954)
inactive: [1] -0.017 | [2] 0.066 | [3] -0.013 | [4] 0.019 | [5] 0.005 | [6] 0.058 | [7] -0.056 | [8] -0.006 | [9] 0.022 | [10] 0 | [11] -0.002 | [12] 0.013 | [13] 0.07 | [14] -0.012 | [15] -0.069 | [16] -0.022 | [17] 0.061 | [18] 0.043 | [20] -0.041 | [19] 0.019

GOLGB1 isoform 2 (UniProt Q14789)
inactive: [1] -0.022 | [2] -0.03 | [3] -0.054 | [4] 0.018 | [5] 0.08 | [6] -0.078 | [7] -0.077 | [8] 0 | [9] 0.014 | [10] 0.017 | [11] 0.106 | [12] -0.062 | [13] -0.044 | [14] 0.026 | [15] 0.024 | [16] -0.019 | [17] -0.008 | [18] 0.009 | [20] 0.039 | [19] 0.167

GOLGA6B (UniProt A6NDN3)
inactive: [1] -0.087 | [2] -0.042 | [3] -0.183 | [4] 0.02 | [6] 0.02 | [10] 0.146 | [11] 0.048 | [13] -0.054 | [14] 0.001 | [15] 0.007 | [16] 0.114 | [18] 0.022 | [20] 0.051

GNMT (UniProt Q14749)
inactive: [1] 0.106 | [2] 0.209 | [3] 0.029 | [4] 0.043 | [5] -0.196 | [6] 0.082 | [7] 0.081 | [8] 0.114 | [9] 0.012 | [10] 0.101 | [11] -0.03 | [12] 0.054 | [13] -0.102 | [14] -0.446 | [15] 0.045 | [16] 0.502 | [17] 0.032 | [18] -0.051 | [19] -0.068

GLMN (UniProt Q92990)
inactive: [1] -0.022 | [2] -0.007 | [3] -0.033 | [4] -0.005 | [5] -0.03 | [6] -0.006 | [7] 0.053 | [8] 0.023 | [9] -0.043 | [10] 0.084 | [11] -0.008 | [12] 0.008 | [13] -0.077 | [14] -0.028 | [15] -0.009 | [16] 0.027 | [17] 0.032 | [18] 0.033 | [20] -0.005 | [19] -0.031

Reprinted from the results shown (2 entries):
GOLGA6B (UniProt A6NDN3)
inactive: [1] -0.087 | [2] -0.042 | [3] -0.183 | [4] 0.02 | [6] 0.02 | [10] 0.146 | [11] 0.048 | [13] -0.054 | [14] 0.001 | [15] 0.007 | [16] 0.114 | [18] 0.022 | [20] 0.051

GNMT (UniProt Q14749)
inactive: [1] 0.106 | [2] 0.209 | [3] 0.029 | [4] 0.043 | [5] -0.196 | [6] 0.082 | [7] 0.081 | [8] 0.114 | [9] 0.012 | [10] 0.101 | [11] -0.03 | [12] 0.054 | [13] -0.102 | [14] -0.446 | [15] 0.045 | [16] 0.502 | [17] 0.032 | [18] -0.051 | [19] -0.068

Later entries

GK5 (UniProt Q6ZS86)
inactive: [1] 0.201 | [2] -0.005 | [5] 0.065 | [7] 0.153 | [8] 0.021 | [9] -0.186 | [12] 0.054 | [14] -0.02 | [16] -0.158 | [20] -0.004

GIGYF2 (UniProt Q6Y7W6)
inactive: [1] -0.076 | [2] 0.045 | [3] -0.161 | [4] -0.105 | [5] -0.22 | [6] -0.023 | [7] 0.054 | [8] -0.025 | [9] -0.119 | [10] -0.03 | [11] -0.102 | [12] -0.062 | [13] -0.046 | [14] -0.079 | [15] 0.024 | [16] 0.103 | [17] 0.06 | [18] -0.004 | [20] -0.016 | [19] -0.065

GPN1 isoform 5 (UniProt Q9HCN4)
inactive: [1] -0.027 | [2] -0.027 | [3] 0.065 | [4] 0.02 | [5] -0.018 | [6] -0.041 | [7] 0.045 | [8] -0.051 | [9] -0.032 | [10] 0.056 | [11] -0.061 | [12] -0.026 | [13] 0.022 | [14] 0.056 | [15] -0.035 | [16] 0.045 | [17] 0.029 | [18] -0.031 | [20] -0.039 | [19] -0.037

GNPTAB (UniProt Q3T906)
inactive: [1] -0.064 | [2] -0.115 | [3] 0.047 | [4] -0.082 | [5] 0.006 | [6] -0.001 | [7] -0.051 | [8] 0.012 | [9] 0.108 | [10] 0.108 | [11] -0.061 | [12] -0.012 | [13] -0.092 | [14] -0.075 | [15] -0.238 | [16] -0.101 | [17] -0.048 | [18] 0.101 | [20] -0.161 | [19] 0.239

GOLGA7 (UniProt Q7Z5G4)
inactive: [1] 0.008 | [2] -0.117 | [3] 0.062 | [4] -0.035 | [5] -0.055 | [6] 0.072 | [7] 0.066 | [9] 0.012 | [10] 0.002 | [11] -0.088 | [12] -0.001 | [13] -0.031 | [14] 0.008 | [15] 0.001 | [16] -0.084 | [17] -0.014 | [18] 0.04 | [20] 0 | [19] -0.053

GNL3 (UniProt Q9BVP2)
inactive: [1] -0.038 | [2] -0.078 | [3] -0.007 | [4] 0.011 | [5] -0.031 | [6] 0.056 | [7] 0.069 | [10] 0.134 | [11] 0.08 | [12] -0.061 | [13] -0.098 | [14] -0.088 | [15] -0.069 | [16] -0.131 | [17] 0.134 | [18] -0.066 | [20] -0.027 | [19] 0.041

GNA12 (UniProt Q03113)
inactive: [1] -0.025 | [2] -0.276 | [3] -0.265 | [4] 0.067 | [5] 0.175 | [6] -0.235 | [7] -0.138 | [9] 0.032 | [10] 0.036 | [11] -0.108 | [12] -0.372 | [13] -0.231 | [14] -0.176 | [15] -0.071 | [16] -0.197 | [17] -0.184 | [18] 0.042 | [20] -0.164 | [19] -0.107

GON7 (UniProt Q9BXV9)
inactive: [1] -0.041 | [2] -0.071 | [3] 0.029 | [4] -0.037 | [5] 0.067 | [6] -0.01 | [7] 0.01 | [8] 0.111 | [9] 0.149 | [10] 0.068 | [11] -0.002 | [12] 0.095 | [13] -0.038 | [14] 0.008 | [15] 0.08 | [16] -0.112 | [17] -0.006 | [18] -0.034 | [20] 0.007 | [19] -0.014

GPATCH4 isoform 3 (UniProt Q5T3I0)
inactive: [1] -0.247 | [2] -0.104 | [5] 0.073 | [7] -0.461 | [8] 0.153 | [9] 0.168 | [14] 0.499 | [16] -0.035 | [17] 0.032 | [20] 0.142 | [19] -0.363

GINS2 (UniProt Q9Y248)
inactive: [1] -0.025 | [2] 0.106 | [3] -0.024 | [4] -0.031 | [5] -0.265 | [6] 0.03 | [7] -0.057 | [8] -0.111 | [9] -0.064 | [10] 0.03 | [11] -0.086 | [13] -0.024 | [14] 0.022 | [16] -0.01 | [17] 0.028 | [18] -0.031 | [20] -0.163 | [19] -0.026
active: [15] 0.533
